Measurements: article PMC2223503

System: receptors for cholecystokinin (CCK)
Experiment: storage phosphor autoradiography, binding of [125I]BH-CCK-8 to human pancreatic tissue sections
Settings: 12 pancreatic cancers, result in words

B1: cholecystokinin (peptide, UniProt P06307 21-115, looked up)
Cholecystokinin: QPVPPADPAGSGLQRAEEAPRRQLRVSQRTDGESRAHLGALLARYIQQARKAPSGRMSIVKNLQNLDPSHRISDRDYMGWMDFGRRSAEEYEYPS
modifications: Cholecystokinin
notes: gut hormone
receptors in pancreatic cancers: No CCK receptors were identified in pancreatic cancers
